Assay results as given in PMC10593818.
These are yes or no findings as the source states them, for the method shown. Binding seen in cells or lysates may run through a third protein. Some entries that bind do so weakly or less than the wild type. For part of these data: Sequences can lack the tags named with a protein.

Sequences of proteins named here, by UniProt entry; tags and fusion partners are left off. A change or cut given only in a name is not applied to a line headed by its entry. Residues count along the entry.
UniProt O60603: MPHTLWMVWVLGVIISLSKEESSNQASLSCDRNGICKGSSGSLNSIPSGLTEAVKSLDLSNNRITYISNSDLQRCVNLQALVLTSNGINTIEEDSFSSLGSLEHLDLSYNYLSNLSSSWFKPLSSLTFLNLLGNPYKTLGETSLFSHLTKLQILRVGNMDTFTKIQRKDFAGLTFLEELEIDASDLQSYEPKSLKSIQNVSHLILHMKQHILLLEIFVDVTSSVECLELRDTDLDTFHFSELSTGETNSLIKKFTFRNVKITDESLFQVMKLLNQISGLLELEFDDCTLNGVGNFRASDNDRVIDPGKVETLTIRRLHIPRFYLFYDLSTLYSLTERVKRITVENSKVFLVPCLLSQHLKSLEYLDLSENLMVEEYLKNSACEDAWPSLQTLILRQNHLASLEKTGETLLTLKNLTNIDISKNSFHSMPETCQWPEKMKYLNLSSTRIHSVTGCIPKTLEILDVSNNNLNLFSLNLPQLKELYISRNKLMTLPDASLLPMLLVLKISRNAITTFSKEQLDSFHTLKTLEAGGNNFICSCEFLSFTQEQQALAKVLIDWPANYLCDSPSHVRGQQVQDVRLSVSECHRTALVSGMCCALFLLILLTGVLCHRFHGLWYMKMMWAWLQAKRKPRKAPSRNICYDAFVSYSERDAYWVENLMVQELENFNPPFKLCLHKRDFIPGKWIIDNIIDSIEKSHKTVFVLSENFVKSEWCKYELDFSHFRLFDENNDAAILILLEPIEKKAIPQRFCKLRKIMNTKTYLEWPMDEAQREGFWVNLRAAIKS
UniProt Q9QUN7, residues 25-784: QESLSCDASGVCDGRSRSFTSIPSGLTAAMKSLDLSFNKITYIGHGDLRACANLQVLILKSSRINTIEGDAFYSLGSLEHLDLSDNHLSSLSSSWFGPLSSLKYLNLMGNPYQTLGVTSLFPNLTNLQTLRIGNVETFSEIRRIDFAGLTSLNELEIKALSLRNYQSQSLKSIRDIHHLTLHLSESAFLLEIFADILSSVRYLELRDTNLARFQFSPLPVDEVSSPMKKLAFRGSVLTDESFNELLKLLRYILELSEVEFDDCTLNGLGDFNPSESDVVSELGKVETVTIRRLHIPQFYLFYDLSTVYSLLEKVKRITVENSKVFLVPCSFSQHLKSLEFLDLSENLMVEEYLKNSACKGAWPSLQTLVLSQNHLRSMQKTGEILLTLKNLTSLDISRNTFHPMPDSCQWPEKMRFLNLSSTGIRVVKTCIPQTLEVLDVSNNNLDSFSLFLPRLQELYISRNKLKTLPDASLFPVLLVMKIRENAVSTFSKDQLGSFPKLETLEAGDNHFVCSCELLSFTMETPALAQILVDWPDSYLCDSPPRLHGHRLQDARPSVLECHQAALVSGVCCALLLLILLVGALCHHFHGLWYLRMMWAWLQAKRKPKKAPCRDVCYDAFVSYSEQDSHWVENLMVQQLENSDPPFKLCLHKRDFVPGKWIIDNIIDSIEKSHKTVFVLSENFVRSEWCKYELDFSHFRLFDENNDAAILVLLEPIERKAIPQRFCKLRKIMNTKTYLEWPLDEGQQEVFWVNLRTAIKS

Tests used:
[1] = target: T1, YFP^N-CLEC2D / YFP^C-CLEC2D (human) (UniProt Q9UHP7); experiment: split reporter; BiFC with HA-tagged CLEC2D or Myc-tagged TLR2 co-expressed as competitor in 293T cells; frequency of YFP+ cells
T1 sequence: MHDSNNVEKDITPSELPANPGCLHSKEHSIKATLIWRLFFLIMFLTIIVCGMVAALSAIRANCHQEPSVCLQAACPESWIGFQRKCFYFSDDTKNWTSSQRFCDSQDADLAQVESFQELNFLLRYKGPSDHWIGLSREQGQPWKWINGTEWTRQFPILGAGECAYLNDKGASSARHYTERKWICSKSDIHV

[2] = target: T2, human CLEC2D-Flag (human) (UniProt Q9UHP7); experiment: co-IP; tagged proteins co-expressed in HEK293T cells, without or with C. albicans yeast (MOI = 5); lysed in Western and IP buffer; antibody-conjugated magnetic beads overnight at 4 °C; immunoblot
T2 sequence: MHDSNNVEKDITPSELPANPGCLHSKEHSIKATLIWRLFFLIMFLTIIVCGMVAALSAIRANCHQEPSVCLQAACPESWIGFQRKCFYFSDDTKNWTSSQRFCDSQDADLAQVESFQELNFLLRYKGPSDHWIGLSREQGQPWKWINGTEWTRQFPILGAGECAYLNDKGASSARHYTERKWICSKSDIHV

[3] = target: T3, endogenous CLEC2D of human PBMCs (human (endogenous in PBMCs)) (UniProt Q9UHP7); experiment: FRET or BRET; endogenous proteins on fixed human PBMCs after 60 min curdlan; Cy3-anti-CLEC2D (donor) and Cy5-anti-TLR2 (acceptor) antibodies; acceptor photobleaching, confocal microscope
T3 sequence: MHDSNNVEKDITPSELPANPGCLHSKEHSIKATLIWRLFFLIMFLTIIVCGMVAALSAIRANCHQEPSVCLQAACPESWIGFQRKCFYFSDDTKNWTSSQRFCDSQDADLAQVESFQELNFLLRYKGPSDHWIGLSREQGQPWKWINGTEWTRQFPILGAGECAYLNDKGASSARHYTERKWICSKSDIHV

[4] = target: T1, YFP^N-CLEC2D / YFP^C-CLEC2D (human); experiment: split reporter; BiFC: YFP^N and YFP^C fusions co-transfected into HEK293 cells; YFP+ cells by flow cytometry or confocal microscopy
YFP^C-TLR2 (human) = YFP^C-TLR2 (human) (UniProt O60603); experiment: split reporter; BiFC with HA-tagged CLEC2D or Myc-tagged TLR2 co-expressed as competitor in 293T cells; frequency of YFP+ cells
[5] = target: endogenous TLR2 of mouse BMDCs (mouse (endogenous in BMDCs)) (UniProt Q9QUN7); experiment: co-IP; endogenous proteins of mouse BMDCs stimulated with curdlan or heat-killed C. albicans yeast (MOI = 5); lysate incubated with anti-TLR2 antibody, protein A/G magnetic beads; immunoblot
human TLR2-Myc (human) = human TLR2-Myc (human) (UniProt O60603); experiment: co-IP; tagged proteins co-expressed in HEK293T cells, without or with C. albicans yeast (MOI = 5); lysed in Western and IP buffer; antibody-conjugated magnetic beads overnight at 4 °C; immunoblot

Molecule: human TLR2-Myc (from UniProt O60603 21-784) (receptor)
- binding [1]: binds
- binding [2]: binds

Molecule: endogenous TLR2 of human PBMCs (from UniProt O60603 21-784) (receptor)
- binding [3]: binds

Molecule: YFP^C-TLR2 (from UniProt O60603 21-784) (receptor)
- binding [1]: binds
- binding [4]: binds

B1: HA-tagged CLEC2D (receptor, UniProt Q9UHP7 1-191)
chain: MHDSNNVEKDITPSELPANPGCLHSKEHSIKATLIWRLFFLIMFLTIIVCGMVAALSAIRANCHQEPSVCLQAACPESWIGFQRKCFYFSDDTKNWTSSQRFCDSQDADLAQVESFQELNFLLRYKGPSDHWIGLSREQGQPWKWINGTEWTRQFPILGAGECAYLNDKGASSARHYTERKWICSKSDIHV
- binding [1]: binds
- binding (YFP^C-TLR2 (human)): binds

B2: YFP^N-CLEC2D / YFP^C-CLEC2D (receptor, UniProt Q9UHP7 1-191)
chain: MHDSNNVEKDITPSELPANPGCLHSKEHSIKATLIWRLFFLIMFLTIIVCGMVAALSAIRANCHQEPSVCLQAACPESWIGFQRKCFYFSDDTKNWTSSQRFCDSQDADLAQVESFQELNFLLRYKGPSDHWIGLSREQGQPWKWINGTEWTRQFPILGAGECAYLNDKGASSARHYTERKWICSKSDIHV
- binding [1]: binds
- binding [4]: binds

B3: endogenous Clec2d of mouse BMDCs (receptor, UniProt Q91V08 1-207)
chain: MCVTKASLPMLSPTGSPQEVEVGKILQGKRHGTISPESCAKLYCYYGVIMVLTVAVIALSVALSATKTEQIPVNKTYAACPQNWIGVENKCFYFSEYPSNWTFAQAFCMAQEAQLARFDNQDELNFLMRYKANFDSWIGLHRESSEHPWKWTDNTEYNNTIPIRGEERFAYLNNNGISSTRIYSLRMWICSKLNSYSLHCQTPFFPS
- binding [5]: binds

B4: human Dectin-1-HA (receptor, UniProt Q9BXN2 1-247)
chain: MEYHPDLENLDEDGYTQLHFDSQSNTRIAVVSEKGSCAASPPWRLIAVILGILCLVILVIAVVLGTMAIWRSNSGSNTLENGYFLSRNKENHSQPTQSSLEDSVTPTKAVKTTGVLSSPCPPNWIIYEKSCYLFSMSLNSWDGSKRQCWQLGSNLLKIDSSNELGFIVKQVSSQPDNSFWIGLSRPQTEVPWLWEDGSTFSSNLFQIRTTATQENPSPNCVWIHVSVIYDQLCSVPSYSICEKKFSM
- binding [2]: no binding
- binding (human TLR2-Myc (human)): no binding
